According to US20190060473A1 (priority 2016, published 2019):

Assay: general procedure: solution-phase peptide synthesis; HATU/DIPEA; EDC/DIPEA
Conditions: conjugation step

**Q.** Which conjugation yield does the source give for “(2S)-2-((R)-2-(2-((2-(4-(2-(5-(3-(2,4-dihydroxy-5-isopropylphenyl)-5-hydroxy-4H-1,2,4-triazol-4-yl)-1H-indol-1-yl)ethyl)piperidin-1-yl)-2-oxoethyl)disulfanyl)-N-methylacetamido)-3-methylbutanamido)-N-((3R,5S)-1-((R)-2-((1S,2R)-3-(((1R,2S)-1-hydroxy-1-phenylpropan-2-yl)amino)-1-methoxy-2-methyl-3-oxopropyl)pyrrolidin-1-yl)-3-methoxy-5-methyl-1-oxoheptan-4-yl)-N,3-dimethylbutanamide” here?
**A.** 51%
